These results are taken from article PMC6751061.

The data set has as its target T1, LexA (Bacillus subtilis 3610) (UniProt P31080).
T1 sequence (looked up, limits assumed): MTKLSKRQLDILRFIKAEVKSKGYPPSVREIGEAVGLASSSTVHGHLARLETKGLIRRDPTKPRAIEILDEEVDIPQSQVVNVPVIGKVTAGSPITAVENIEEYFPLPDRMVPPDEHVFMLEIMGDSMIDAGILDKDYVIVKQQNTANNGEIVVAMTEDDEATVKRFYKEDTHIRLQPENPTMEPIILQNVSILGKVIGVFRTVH
The data set is described as follows: EMSA. To be noted: 4 nM probe, poly(dI-dC), EMSA: 4 nM 32P probe, LexA 1-500 nM, 100 mM Tris-HCl, 50% glycerol, 500 mM NaCl, 10 mM EDTA, 10 mM DTT, recombinant protein, label: 5'-32P, probe letters rebuilt from the primers and the genome. For orientation: Mobility shift assays separate free from complexed probe on a gel.

For at least one entry, the source does not settle the construct or the ends of the probe. Where a protein sequence is shown, tags need not be part of it. The direction of at least one scale is not stated here.

In the case of “AGGAGGAATTCTACCTCCTTTTCTTTTGCTAAATGATGGGGTATCATTTATTAAGTTAAAGATATACATAAAATGAATATTTTATGTTAAATAAGGTCATTTGAGCCTTACATGTCTATATGTTCATATATCCGTTCTTATTCGCTAAAAAATAGGAACAAATGTTCCCTCAATCACCGTATTATGATATTATATTAACGTGTCGGTCAACATAATAAAGGTCATATCAACAAAACAAACTAAACTTTCATAATCCTTCGACTATGGGGAATAATCAAAAAAAGAGGTGTACGATCTAGTACTTATGGATCCCTCCT (double strand) [PsigNUP]”, for the setting “shift at LexA as low as 1 nM”, the binding result is “binds”. For “AGGAGGAATTCTACCTCCTTTTCTTTTGCTAAATGATGGGGTATCATTTATTAAGTTAAAGATATACATAAAATGAATATTTTATGTTAAATAAGGTCATTTGAGCCTTACATGTCTATATGTTCATATATCCGTTCTTATTCGCTAAAAAATATTTTACAGTGTTCCCTCAATCACCGTATTATGATATTATATTAACGTGTCGGTCAACATAATAAAGGTCATATCAACAAAACAAACTAAACTTTCATAATCCTTCGACTATGGGGAATAATCAAAAAAAGAGGTGTACGATCTAGTACTTATGGATCCCTCCT (double strand) [PsigNUP*]”, the binding signal (fold lower affinity) (relative to PsigNUP) turned out to be 100.
